PubChem BioAssay AID686938, Drosophila RNAi Screening Center – 2013

Test: 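Knock-downs reducing store-operated calcium influx in Drosophila cells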 (primary screen)
Cells: Drosophila S2R+ cells
Reagent: long dsRNA against Drosophila genes, about 0.25 µg dsRNA per well, roughly 10,000 cells
Timing: 5 days of knock-down before the calcium assay
Challenge: thapsigargin (SERCA pump blocker) to empty calcium stores; entry signal taken 4 min after adding it
Measured: 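Per-well fluo-4 fluorescence in two replicates, unnormalised, measured in resting cells and 4 min after store depletion by the SERCA blocker thapsigargin; ratio of the two present in few wells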
Scale: calcium entry signal: higher = stronger calcium signal after store depletion; entry to resting ratio: higher = more calcium entry relative to resting level; resting calcium signal: higher = higher resting calcium signal
Rule for the call: 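Hit if the duplicate-averaged plate z-score for entry over resting signal is under −3; wells with weak total dye signal (Fmax z < −2) or more than 5 off-targets removed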
Meaning of the calls: active = strongly reduced calcium entry; inactive = no strong reduction
In all, the deposit lists about 23,000 reagents; this is a random part of those with a known target gene and a result. Over the whole deposit, 75 (0.33%) are marked active. 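Raw plate signals without normalisation; calls rest on plate z-scores that were not deposited; ratio present for only 364 wells.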 Names joined by + are all predicted targets of the reagent. Not given: the dose of the treatment.

| Gene | dsRNA | calcium entry signal, replicate 1 (fluorescence units) | calcium entry signal, replicate 2 (fluorescence units) | entry to resting ratio | resting calcium signal, replicate 1 (fluorescence units) | resting calcium signal, replicate 2 (fluorescence units) | Call |
| --- | --- | --- | --- | --- | --- | --- | --- |
| CNMaR (CNMamide Receptor) | DRSC08992 | 6.79e7 | 5.10e7 | – | 3.45e7 | 2.35e7 | inactive |
| CNMaR (CNMamide Receptor) | DRSC10224 | 2.77e7 | 3.81e7 | – | 1.41e7 | 1.62e7 | inactive |
| CG7806 | DRSC03071 | 5.12e7 | – | – | 2.57e7 | – | inactive |
| Su(H) (Suppressor of Hairless) | DRSC03445 | 3.93e7 | 2.43e7 | – | 1.59e7 | 1.12e7 | inactive |
| mxt (mextli) | DRSC00551 | 3.42e7 | – | – | 1.93e7 | – | inactive |
| CG32683 | DRSC17990 | 3.08e7 | 5.19e7 | – | 1.62e7 | 2.27e7 | inactive |
| CG32683 | DRSC18232 | 1.97e7 | 2.91e7 | – | 1.03e7 | 1.36e7 | inactive |
| CG32683 | DRSC18233 | 2.45e7 | 2.93e7 | – | 1.14e7 | 1.38e7 | inactive |
| La (La autoantigen-like) | DRSC03358 | 3.21e7 | 2.95e7 | – | 1.62e7 | 1.29e7 | inactive |
| Dyb (Dystrobrevin) | DRSC07208 | 4.08e7 | 4.86e7 | – | 1.80e7 | 2.28e7 | inactive |
| Dyb (Dystrobrevin) | DRSC22862 | 1.95e7 | 3.46e7 | – | 1.08e7 | 1.54e7 | inactive |
| sbb (scribbler) | DRSC05723 | 2.68e7 | 6.13e7 | – | 1.35e7 | 2.88e7 | inactive |
| sbb (scribbler) | DRSC07676 | 4.28e7 | 4.47e7 | – | 1.89e7 | 1.99e7 | inactive |
| Claspin | DRSC08308 | 6.78e7 | 3.86e7 | – | 3.18e7 | 1.92e7 | inactive |
| CG14395 | DRSC14852 | 4.03e7 | 4.03e7 | – | 1.97e7 | 2.14e7 | inactive |
| serp (serpentine) | DRSC11035 | 3.17e7 | 4.76e7 | – | 1.60e7 | 2.20e7 | inactive |
| serp (serpentine) | DRSC11036 | 3.50e7 | 5.10e7 | – | 1.73e7 | 2.18e7 | inactive |
| S6kII (Ribosomal protein S6 kinase II) | DRSC20645 | 3.42e7 | 3.75e7 | – | 1.88e7 | 1.61e7 | inactive |
| Acph-1 (Acid phosphatase 1) | DRSC14103 | 4.04e7 | 4.77e7 | – | 2.15e7 | 2.35e7 | inactive |
| CG4239 | DRSC19885 | 3.85e7 | 4.08e7 | – | 1.78e7 | 2.05e7 | inactive |
| Ilp7 (Insulin-like peptide 7) | DRSC17895 | 2.18e7 | 3.24e7 | – | 1.12e7 | 1.47e7 | inactive |
| AttC (Attacin-C) | DRSC06886 | 3.16e7 | 3.45e7 | – | 1.63e7 | 1.59e7 | inactive |
| CrebB (Cyclic-AMP response element binding protein B) | DRSC20232 | 4.62e7 | 3.69e7 | – | 2.66e7 | 1.91e7 | inactive |
| GC (gamma-glutamyl carboxylase) | DRSC08396 | 3.72e7 | 5.33e7 | – | 1.85e7 | 2.28e7 | inactive |
| Pits (Protein interacting with Ttk69 and Sin3A) | DRSC19385 | 1.99e7 | 3.05e7 | – | 1.32e7 | 2.05e7 | active |
| Pits (Protein interacting with Ttk69 and Sin3A) | DRSC19812 | 3.02e7 | 4.98e7 | – | 1.52e7 | 2.54e7 | inactive |
| Or67c (Odorant receptor 67c) | DRSC11242 | 3.45e7 | 3.55e7 | – | 1.71e7 | 1.53e7 | inactive |
| CG1620 | DRSC06603 | 3.85e7 | – | – | 2.03e7 | – | inactive |
| Treh (Trehalase) | DRSC04548 | 3.58e7 | – | – | 1.93e7 | – | inactive |
| CG14223 | DRSC19580 | 4.12e7 | 3.76e7 | – | 2.33e7 | 1.73e7 | inactive |
| cGlr1 (cGAS-like receptor 1) | DRSC06270 | 3.16e7 | 3.74e7 | – | 1.43e7 | 1.72e7 | inactive |
| CG8617 | DRSC07223 | 2.10e7 | 3.53e7 | – | 1.16e7 | 1.42e7 | inactive |
| CG17059 | DRSC06654 | 2.44e7 | 4.04e7 | – | 1.30e7 | 1.66e7 | inactive |
| CG7720 | DRSC16306 | 1.88e7 | 2.15e7 | – | 9.59e6 | 1.01e7 | inactive |
| CG7720 | DRSC16307 | 4.43e7 | 2.93e7 | – | 2.51e7 | 1.51e7 | inactive |
| GstE11 (Glutathione S transferase E11) | DRSC06926 | 4.18e7 | 3.75e7 | – | 1.82e7 | 1.82e7 | inactive |
| boly (borrelly) | DRSC21629 | 3.37e7 | 3.84e7 | – | 1.86e7 | 1.75e7 | inactive |
| Syn1 + CG7370 | DRSC22768 | 4.52e7 | 3.22e7 | – | 2.54e7 | 1.51e7 | inactive |
| CR17024 (pseudo) | DRSC02562 | 4.62e7 | 3.15e7 | – | 1.98e7 | 1.46e7 | inactive |
| bsk (basket) | DRSC03499 | 4.13e7 | – | – | 2.21e7 | – | inactive |
| CG31139 | DRSC21393 | 4.28e7 | 3.71e7 | – | 2.41e7 | 1.75e7 | inactive |
| Act88F (Actin 88F) | DRSC14105 | 1.52e7 | 1.66e7 | – | 9.06e6 | 3.82e7 | inactive |
| Ate1 (Arginyltransferase 1) | DRSC05925 | 4.20e7 | 3.82e7 | – | 1.86e7 | 1.83e7 | inactive |
| ATPsynbetaL (ATP synthase, beta subunit-like) | DRSC10503 | 3.71e7 | 5.94e7 | – | 1.88e7 | 2.10e7 | inactive |
| CG10918 | DRSC20472 | 4.41e7 | 3.76e7 | – | 1.92e7 | 1.40e7 | inactive |
| CG5355 | DRSC02844 | 4.75e7 | – | – | 2.41e7 | – | inactive |
| Vajk4 | DRSC06589 | 2.34e7 | 1.83e7 | – | 1.08e7 | 8.85e6 | inactive |
| Vajk4 | DRSC07003 | 4.12e7 | 4.24e7 | – | 1.84e7 | 1.97e7 | inactive |
| CG14810 | DRSC17693 | 4.53e7 | 3.80e7 | – | 2.22e7 | 1.78e7 | inactive |
| CG14810 | DRSC17961 | 3.75e7 | 5.12e7 | 2.1 | 1.79e7 | 1.97e7 | inactive |
| tweek | DRSC02433 | 3.66e7 | 2.29e7 | – | 1.65e7 | 1.18e7 | inactive |
| tweek | DRSC02434 | 3.96e7 | 2.18e7 | – | 1.82e7 | 1.05e7 | inactive |
| tweek | DRSC02785 | 4.32e7 | – | – | 2.28e7 | – | inactive |
| tweek | DRSC23133 | 2.84e7 | 2.81e7 | – | 1.40e7 | 1.41e7 | inactive |
| Or85d (Odorant receptor 85d) | DRSC16767 | 4.33e7 | 3.27e7 | – | 2.30e7 | 1.59e7 | inactive |
| Tim8 | DRSC20291 | 2.94e7 | 4.63e7 | – | 1.49e7 | 2.13e7 | inactive |
| tkv (thickveins) | DRSC00860 | 3.90e7 | 3.30e7 | – | 1.72e7 | 1.54e7 | inactive |
| tkv (thickveins) | DRSC03623 | 4.25e7 | – | – | 2.15e7 | – | inactive |
| tkv (thickveins) | DRSC22606 | 3.50e7 | 4.74e7 | – | 1.75e7 | 2.29e7 | inactive |

Entries above with an active call:
| Gene | dsRNA | calcium entry signal, replicate 1 (fluorescence units) | calcium entry signal, replicate 2 (fluorescence units) | entry to resting ratio | resting calcium signal, replicate 1 (fluorescence units) | resting calcium signal, replicate 2 (fluorescence units) | Call |
| --- | --- | --- | --- | --- | --- | --- | --- |
| Pits (Protein interacting with Ttk69 and Sin3A) | DRSC19385 | 1.99e7 | 3.05e7 | – | 1.32e7 | 2.05e7 | active |
